Taken from: PubChem BioAssay AID602196 (INSERM, 2012)
Here is one part, drawn at random, of about 23,000 reagents tested. 455 of all reagents (2%) count as active. 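Active includes both protection and sensitisation; some change values fall well beyond the stated -50 to +50 range.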 Not given: the amount of reagent.

Assay: 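Modifiers of cisplatin sensitivity in A549 cells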
System: human A549 lung cancer cells
Reagents: siRNA pair against human genes
Timing: 48 h transfection before cisplatin; time from cisplatin to read-out not stated
Conditions: cisplatin at a dose killing half of control-siRNA cells; exact dose and duration not given
Measured: 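Cisplatin cell death as a shift from the 50% death seen with control siRNA; siRNAs toxic or growth-blocking alone scored 0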
Reading the numbers: two-siRNA summed score (-2 to +2): higher = both siRNAs protect from cisplatin killing; -2 means both sensitise; mean protection from cisplatin (shift in death) and protection from cisplatin (shift in death), siRNA C and protection from cisplatin (shift in death), siRNA D: higher = protection from cisplatin killing
Call rule: 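siRNAs harmful alone (LDH or WST-1) get 0; others get +1 for less and -1 for more cisplatin killing; genes are active when the two siRNAs give the same sign, summing to ±2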
Calls: active = both siRNAs shift cisplatin killing the same way; inactive = no consistent shift, or siRNA harmful alone

Target gene | two-siRNA summed score (-2 to +2) | mean protection from cisplatin (shift in death) (%) | protection from cisplatin (shift in death), siRNA C (%) | protection from cisplatin (shift in death), siRNA D (%) | call
SLC25A32 | 0 | 5.7 | 14.5 | -3.1 | inactive
FAM151B | 0 | -6 | -0.7 | -11.4 | inactive
ECHDC2 | -1 | -10.7 | -15.3 | -6.2 | inactive
HOATZ | 1 | 15.6 | 15.9 | 15.4 | inactive
CDC42 | 1 | 27.5 | 13.4 | 41.7 | inactive
MTM1 | 0 | -1.3 | 3.2 | -5.9 | inactive
LOC402103 | 0 | 0.5 | 0.9 | 0.1 | inactive
AMPD3 | 0 | 48.1 | -13.4 | 110 | inactive
LY6G5C | 1 | 1.3 | -5.9 | 8.4 | inactive
RAB40B | 0 | 2.6 | 1.5 | 3.7 | inactive
ATP6V0D2 | -1 | -6.7 | -7 | -6.4 | inactive
OLIG2 | 0 | 15.5 | 28.9 | 2 | inactive
SLC44A4 | 0 | 16.6 | -1.8 | 35 | inactive
PRSS55 | -1 | -15.9 | -0.8 | -31 | inactive
LOC441127 | 0 | 10.7 | 15.5 | 6 | inactive
ZSCAN29 | 0 | 9 | 9.9 | 8.2 | inactive
MGC27277 | 0 | -2.2 | -7.2 | 2.8 | inactive
WNT9B | -1 | 0.3 | 15.9 | -15.4 | inactive
LOC401642 | 0 | 15.1 | 7.3 | 23 | inactive
LOC343295 | 0 | -14.2 | -9.8 | -18.7 | inactive
DNAJC25-GNG10 | -1 | -10.2 | 1.3 | -21.7 | inactive
DLAT | 0 | 8.5 | 4.3 | 12.8 | inactive
RTN4IP1 | 1 | 13.1 | 22.7 | 3.5 | inactive
CELF1 | -1 | -5.7 | 13 | -24.5 | inactive
LOC284323 | 0 | 5.2 | 8.5 | 1.9 | inactive
FBN1 | 0 | 2 | -2.2 | 6.3 | inactive

The list goes on (2 carried over from the part before).
Target gene | two-siRNA summed score (-2 to +2) | mean protection from cisplatin (shift in death) (%) | protection from cisplatin (shift in death), siRNA C (%) | protection from cisplatin (shift in death), siRNA D (%) | call
LOC284323 | 0 | 5.2 | 8.5 | 1.9 | inactive
FBN1 | 0 | 2 | -2.2 | 6.3 | inactive
SF3B2 | 0 | 10.4 | 11.1 | 9.7 | inactive
ZNF701 | -1 | -6.9 | 9.9 | -23.7 | inactive
DEPDC7 | 0 | 9.4 | 7.1 | 11.7 | inactive
PCDHGC5 | 0 | 20 | 26.3 | 13.7 | inactive
LOC391560 | 0 | 8.1 | -2.4 | 18.5 | inactive
TMIGD1 | 0 | 8.5 | 11.9 | 5.1 | inactive
DNAJC10 | 0 | -2.1 | -11.1 | 6.9 | inactive
PES1 | 0 | 9.9 | 12 | 7.8 | inactive
ADRA2B | 1 | 7.8 | -9.1 | 24.7 | inactive
MARS1 | -1 | -5.3 | 15.9 | -26.6 | inactive
KIN | 1 | 1.2 | -4.6 | 7 | inactive
TSHZ3 | 0 | 5.6 | 6.5 | 4.6 | inactive
PPP2R3A | 0 | -2.8 | 3.1 | -8.6 | inactive
ZNF627 | 1 | 14.5 | 21.9 | 7.1 | inactive
LOC152905 | 0 | 3.8 | 0.1 | 7.4 | inactive
C1QL4 | 0 | 15.9 | 26.8 | 5 | inactive
SUCLA2 | 0 | 7.1 | -2.5 | 16.7 | inactive
UBE2O | 0 | 10.1 | 13.7 | 6.4 | inactive
MLANA | 0 | -1.7 | -10.7 | 7.2 | inactive
LPAL2 | -1 | -4.8 | 10.1 | -19.7 | inactive
ERP27 | 1 | 10.8 | 8.2 | 13.4 | inactive
LOC401056 | 0 | 9.2 | 12.6 | 5.7 | inactive
RUFY1 | 0 | -8 | 3.3 | -19.3 | inactive
LOC391059 | 0 | 7 | 6 | 7.9 | inactive
LOC441214 | 0 | 1.2 | 5.1 | -2.6 | inactive
ARRDC1-AS1 | 0 | 11.2 | 13.6 | 8.7 | inactive
NPY6RP | 0 | 3.4 | -2.9 | 9.8 | inactive
C20orf203 | 0 | 3.2 | -7 | 13.4 | inactive
REEP4 | 1 | 19.6 | 35.8 | 3.3 | inactive
SLC1A6 | 0 | 10.8 | 10 | 11.6 | inactive
ZNF764 | 0 | 0.8 | 7.1 | -5.5 | inactive
IL2RG | 0 | 16 | 15.5 | 16.4 | inactive
CHST7 | 0 | -2.7 | 3.1 | -8.5 | inactive
BCAT2 | -1 | -10.9 | 1 | -22.8 | inactive
LHPP | 0 | 0.5 | -7.5 | 8.5 | inactive
NFE2L2 | 0 | 8.9 | 14.5 | 3.3 | inactive
PLD1 | -1 | -14.8 | -0.1 | -29.6 | inactive
ARPP19 | 0 | -13.8 | 4.6 | -32.2 | inactive
LOC391634 | 1 | 14.1 | 15.1 | 13 | inactive
LOC339281 | 1 | 19.3 | 20.3 | 18.2 | inactive
WDR45 | 0 | 14.2 | 10.7 | 17.7 | inactive
MKRN3 | 0 | -4.2 | 0.7 | -9.1 | inactive
LOC284422 | 0 | 7.3 | 8.9 | 5.6 | inactive
LOC402537 | 0 | 6.5 | 6.4 | 6.7 | inactive
LOC391859 | 1 | 19.7 | 16.6 | 22.8 | inactive
NRN1 | 0 | 0.2 | -0.6 | 1 | inactive
CLEC11A | 0 | 8.3 | 7.4 | 9.3 | inactive
